The values that follow come from PMC12205081.

This assay has as its target FUST1-TurboID (Arabidopsis thaliana) (UniProt F4JFL5). Put plainly: proximity labelling; TurboID; FUST1-TurboID seedlings labelled at 37 °C for 1 h with 50 μM biotin; streptavidin magnetic beads and mass spectrometry; YFP-TurboID/Col-0 as background control; four biological replicates.

These are yes or no findings as the source states them, for the method shown. In cells and extracts the contact can be indirect. A yes stands for co-enrichment or nearness to the bait. Other partners may have been found.

B1: RBP47b (endogenous) (protein, UniProt Q0WW84 1-435)
chain: MQTTNGSDSTLATSGATPPNQQTPPPPQQWQQQQQQQQQWMAAMQYPPAAAMMMMQQQQMLMYPHQYVPYNQGPYQQHHPQLHQYGSYQQHQHQQHKAIDRGSGDDVKTLWVGDLLHWMDETYLHSCFSHTGEVSSVKVIRNKLTSQSEGYGFVEFLSRAAAEEVLQNYSGSVMPNSDQPFRINWASFSTGEKRAVENGPDLSVFVGDLSPDVTDVLLHETFSDRYPSVKSAKVVIDSNTGRSKGYGFVRFGDENERSRALTEMNGAYCSNRQMRVGIATPKRAIANQQQHSSQAVILAGGHGSNGSMGYGSQSDGESTNATIFVGGIDPDVIDEDLRQPFSQFGEVVSVKIPVGKGCGFVQFADRKSAEDAIESLNGTVIGKNTVRLSWGRSPNKQWRGDSGQQWNGGYSRGHGYNNGGGYANHHDSNNYHGEN
Regarding B1, the binding entry is “binds”.
